# Test results from the supplement of paper PMC8728848.
# The list shows a part of the results.
# B1: PhypaEULS3 (Physcomitrella patens) (protein)
# chain: MLPVRLHCKADPNFNLAAVPGQGPVMVPFSPNDDFQVWYKDVTMSTRVKDETGSSAFSLINKATGQALRHAPEDLAQCLLADYDSNALDQTVLWTMSEDMGQGYCCIRLASQITRNLDVFRGDKKSGGVKEGSPVITFAWKKQDNQIWKMITAILEQKLISEEDLNSAVDHHHHHH
# Assays:
# Assay in all cases: glycan array binding signal (z-score within array); higher = stronger binding
# Settings in all cases: glycan notation: IUPAC condensed, linker removed
# [1] = molecular target: Neu5Ac(a2-6)Gal(b1-4)GlcNAc(b1-2)Man(a1-3)[Man(a1-6)]Man(b1-4)GlcNAc(b1-4)GlcNAc
# Procedure, shortened: (§1)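 Negative Z-scores can be read as non-binding. The Z-score is calculated within each array and then averaged across arrays of one protein sequence at different concentrations or buffers and across linkers. Arrays, 3228 in all, were curated from the Consortium for Functional Glycomics database and kept only where the protein sequence was available.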
# [2] = molecular target: Neu5Ac(a2-6)Gal(b1-4)GlcNAc(b1-2)Man(a1-3)[Neu5Ac(a2-3)Gal(b1-4)GlcNAc(b1-2)Man(a1-6)]Man(b1-4)GlcNAc(b1-4)GlcNAc
# Procedure, shortened: as §1
# [3] = molecular target: Neu5Ac(a2-6)Gal(b1-4)GlcNAc(b1-2)Man(a1-3)[Neu5Ac(a2-6)Gal(b1-4)GlcNAc(b1-2)Man(a1-6)]Man(b1-4)GlcNAc(b1-4)GlcNAc
# Procedure, shortened: as §1
# [4] = molecular target: Neu5Ac(a2-6)Gal(b1-4)GlcNAc(b1-2)Man(a1-3)[Neu5Ac(a2-6)Gal(b1-4)GlcNAc(b1-2)Man(a1-6)]Man(b1-4)GlcNAc(b1-4)[Fuc(a1-6)]GlcNAc
# Procedure, shortened: as §1
# [5] = molecular target: Neu5Ac(a2-6)Gal(b1-4)GlcNAc(b1-2)Man(a1-6)Man(b1-4)GlcNAc(b1-4)GlcNAc
# Procedure, shortened: as §1
# [6] = molecular target: Neu5Ac(a2-6)Gal(b1-4)GlcNAc(b1-2)Man(a1-6)[Gal(b1-4)GlcNAc(b1-2)Man(a1-3)]Man(b1-4)GlcNAc(b1-4)GlcNAc
# Procedure, shortened: as §1
# [7] = molecular target: Neu5Ac(a2-6)Gal(b1-4)GlcNAc(b1-2)Man(a1-6)[GlcNAc(b1-2)Man(a1-3)]Man(b1-4)GlcNAc(b1-4)GlcNAc
# Procedure, shortened: as §1
# [8] = molecular target: Neu5Ac(a2-6)Gal(b1-4)GlcNAc(b1-2)Man(a1-6)[Man(a1-3)]Man(b1-4)GlcNAc(b1-4)GlcNAc
# Procedure, shortened: as §1
# [9] = molecular target: Neu5Ac(a2-6)Gal(b1-4)GlcNAc(b1-2)[Neu5Ac(a2-6)Gal(b1-4)GlcNAc(b1-4)]Man(a1-3)[GlcNAc(b1-4)][Neu5Ac(a2-6)Gal(b1-4)GlcNAc(b1-2)[Neu5Ac(a2-6)Gal(b1-4)GlcNAc(b1-6)]Man(a1-6)]Man(b1-4)GlcNAc(b1-4)GlcNAc
# Procedure, shortened: as §1
# [10] = molecular target: Neu5Ac(a2-6)Gal(b1-4)GlcNAc(b1-2)[Neu5Ac(a2-6)Gal(b1-4)GlcNAc(b1-4)]Man(a1-3)[GlcNAc(b1-4)][Neu5Ac(a2-6)Gal(b1-4)GlcNAc(b1-4)Man(a1-6)]Man(b1-4)GlcNAc(b1-4)GlcNAc
# Procedure, shortened: as §1
# [11] = molecular target: Neu5Ac(a2-6)Gal(b1-4)GlcNAc(b1-2)[Neu5Ac(a2-6)Gal(b1-4)GlcNAc(b1-6)]Man(a1-6)[Neu5Ac(a2-6)Gal(b1-4)GlcNAc(b1-2)Man(a1-3)][GlcNAc(b1-4)]Man(b1-4)GlcNAc(b1-4)GlcNAc
# Procedure, shortened: as §1
# [12] = molecular target: Neu5Ac(a2-6)Gal(b1-4)GlcNAc(b1-3)Gal(b1-3)GlcNAc
# Procedure, shortened: as §1
# [13] = molecular target: Neu5Ac(a2-6)Gal(b1-4)GlcNAc(b1-3)Gal(b1-4)GlcNAc
# Procedure, shortened: as §1
# [14] = molecular target: Neu5Ac(a2-6)Gal(b1-4)GlcNAc(b1-3)Gal(b1-4)GlcNAc(b1-2)Man(a1-3)[Neu5Ac(a2-6)Gal(b1-4)GlcNAc(b1-3)Gal(b1-4)GlcNAc(b1-2)Man(a1-6)]GalNAc
# Procedure, shortened: as §1
# [15] = molecular target: Neu5Ac(a2-6)Gal(b1-4)GlcNAc(b1-3)Gal(b1-4)GlcNAc(b1-3)Gal(b1-4)GlcNAc
# Procedure, shortened: as §1
# [16] = molecular target: Neu5Ac(a2-6)Gal(b1-4)GlcNAc(b1-3)Gal(b1-4)GlcNAc(b1-3)Gal(b1-4)GlcNAc(b1-2)Man(a1-3)[Neu5Ac(a2-6)Gal(b1-4)GlcNAc(b1-3)Gal(b1-4)GlcNAc(b1-3)Gal(b1-4)GlcNAc(b1-2)Man(a1-6)]GalNAc
# Procedure, shortened: as §1
# [17] = molecular target: Neu5Ac(a2-6)Gal(b1-4)GlcNAc(b1-3)Gal(b1-4)GlcNAc(b1-3)GalNAc
# Procedure, shortened: as §1
# [18] = molecular target: Neu5Ac(a2-6)Gal(b1-4)GlcNAc(b1-3)Gal(b1-4)GlcNAc(b1-3)[Neu5Ac(a2-6)Gal(b1-4)GlcNAc(b1-3)Gal(b1-4)GlcNAc(b1-6)]GalNAc
# Procedure, shortened: as §1
# [19] = molecular target: Neu5Ac(a2-6)Gal(b1-4)GlcNAc(b1-3)Gal(b1-4)GlcNAc(b1-6)[Gal(b1-3)]GalNAc
# Procedure, shortened: as §1
# [20] = molecular target: Neu5Ac(a2-6)Gal(b1-4)GlcNAc(b1-3)Gal(b1-4)[Fuc(a1-3)]GlcNAc(b1-3)Gal(b1-4)[Fuc(a1-3)]GlcNAc
# Procedure, shortened: as §1
# [21] = molecular target: Neu5Ac(a2-6)Gal(b1-4)GlcNAc(b1-3)GalNAc
# Procedure, shortened: as §1
# [22] = molecular target: Neu5Ac(a2-6)Gal(b1-4)GlcNAc(b1-3)[Neu5Ac(a2-6)Gal(b1-4)GlcNAc(b1-6)]GalNAc
# Procedure, shortened: as §1
# [23] = molecular target: Neu5Ac(a2-6)Gal(b1-4)GlcNAc(b1-6)GalNAc
# Procedure, shortened: as §1
# [24] = molecular target: Neu5Ac(a2-6)Gal(b1-4)GlcNAc(b1-6)[Gal(b1-3)GlcNAc(b1-3)]Gal(b1-4)Glc
# Procedure, shortened: as §1
# [25] = molecular target: Neu5Ac(a2-6)Gal(b1-4)GlcNAc(b1-6)[Gal(b1-3)]GalNAc
# Procedure, shortened: as §1
# [26] = molecular target: Neu5Ac(a2-6)Gal(b1-4)GlcNAc6S
# Procedure, shortened: as §1
# Neu5Ac(a2-6)GalNAc = molecular target: Neu5Ac(a2-6)GalNAc
# Procedure, shortened: as §1
# [27] = molecular target: Neu5Ac(a2-6)GalNAc(b1-4)GlcNAc
# Procedure, shortened: as §1
# [28] = molecular target: Neu5Ac(a2-6)GalNAc(b1-4)GlcNAc6S
# Procedure, shortened: as §1
# [29] = molecular target: Neu5Ac(a2-6)GlcNAc(b1-4)GlcNAc
# Procedure, shortened: as §1
# [30] = molecular target: Neu5Ac(a2-6)GlcNAc(b1-4)GlcNAc(b1-4)GlcNAc
# Procedure, shortened: as §1
binder,measurement,setting,value
B1,glycan array binding signal (z-score),[1],-0.436
same,glycan array binding signal (z-score),[2],-0.311
same,glycan array binding signal (z-score),[3],0.126
same,glycan array binding signal (z-score),[4],0.118
same,glycan array binding signal (z-score),[5],-0.203
same,glycan array binding signal (z-score),[6],-0.035
same,glycan array binding signal (z-score),[7],0.801
same,glycan array binding signal (z-score),[8],-0.347
same,glycan array binding signal (z-score),[9],0.449
same,glycan array binding signal (z-score),[10],1.38
same,glycan array binding signal (z-score),[11],0.337
same,glycan array binding signal (z-score),[12],0.4
same,glycan array binding signal (z-score),[13],-0.193
same,glycan array binding signal (z-score),[14],-0.046
same,glycan array binding signal (z-score),[15],0.398
same,glycan array binding signal (z-score),[16],0.347
same,glycan array binding signal (z-score),[17],0.528
same,glycan array binding signal (z-score),[18],0.824
same,glycan array binding signal (z-score),[19],-0.551
same,glycan array binding signal (z-score),[20],-0.366
same,glycan array binding signal (z-score),[21],0.678
same,glycan array binding signal (z-score),[22],-0.629
same,glycan array binding signal (z-score),[23],0.432
same,glycan array binding signal (z-score),[24],0.339
same,glycan array binding signal (z-score),[25],-0.7
same,glycan array binding signal (z-score),[26],2.2
same,glycan array binding signal (z-score),Neu5Ac(a2-6)GalNAc,0.79
same,glycan array binding signal (z-score),[27],0.235
same,glycan array binding signal (z-score),[28],1.7
same,glycan array binding signal (z-score),[29],-0.739
same,glycan array binding signal (z-score),[30],-1.12

# An excerpt of these results, bar-delimited:
binder | measurement | setting | value
B1 | glycan array binding signal (z-score) | [17] | 0.528
same | glycan array binding signal (z-score) | [18] | 0.824
